From article PMC2588538, “Structure of Reovirus σ1 in Complex with Its Receptor Junctional Adhesion Molecule-A” (PLoS Pathogens, 2008)
No constants are given. Whether binding was seen depends on the method and setting. Some entries that bind do so weakly or less than the wild type.

Columns and labels:
[1] = biological target: D1 domain of human JAM-A (residues 28–129) with E121A (human) (UniProt Q9Y624); assay: SEC; analytical Superdex 75 PC 3.2/30 (SMART system); 20 mM Hepes pH 7.4 or 20 mM citrate pH 5.0, 100 mM NaCl; both purified
[2] = biological target: T1, D1 domain of human junctional adhesion molecule-A (hJAM-A D1; residues 28–129) (human) (UniProt Q9Y624); assay: SEC; analytical Superdex 75 PC 3.2/30 (SMART system); 20 mM citrate pH 4.5 or 4.0, 100 mM NaCl; both purified
T1 sequence: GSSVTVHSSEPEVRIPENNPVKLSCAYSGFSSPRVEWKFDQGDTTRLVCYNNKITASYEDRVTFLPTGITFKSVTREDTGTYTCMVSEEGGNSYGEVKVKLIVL

[3] = biological target: T1, D1 domain of human junctional adhesion molecule-A (hJAM-A D1; residues 28–129) (human); assay: SEC; analytical Superdex 75 PC 3.2/30 (SMART system); 20 mM Hepes pH 7.4 or 20 mM citrate pH 5.0, 100 mM NaCl; both purified

D1 domain of human JAM-A (residues 28–129) with E121A (from UniProt Q9Y624 28-129) (domain or fragment)
binding [1]: no binding

reovirus type 3 Dearing (T3D) σ1 fragment comprising the head domain and one β-spiral of the tail (σ1H; residues 293–455) (from UniProt P03528 293-455) (domain or fragment)
binding [2]: no binding (condition: pH 4.5 or 4.0)

B1: D1 domain of human junctional adhesion molecule-A (hJAM-A D1; residues 28–129) (domain or fragment)
chain: GSSVTVHSSEPEVRIPENNPVKLSCAYSGFSSPRVEWKFDQGDTTRLVCYNNKITASYEDRVTFLPTGITFKSVTREDTGTYTCMVSEEGGNSYGEVKVKLIVL
notes: two non-native residues left at the N-terminus after removal of GST, numbered Gly26 and Ser27; human junctional adhesion molecule-A, membrane-distal D1 domain, residues 28-129; Homodimer in solution at neutral pH; also called wt D1; source: E. coli BL21 (DE3) pLysS, purified (GSTrap, on-column thrombin cleavage, SEC); not shown: GST, N-terminal, cleaved
binding [3]: binds
